According to patent US9249132B2, “Substituted bicyclic aromatic compounds as S-nitrosoglutathione reductase inhibitors” (Nivalis Therapeutics, Inc., priority 2010, dated 2016):
Some of these results come from one statement about several compounds together.

Amino acid sequences for entries named in this document (tags omitted). A change or cut given only in a name is not applied to a line headed by its entry.
UniProt P11766: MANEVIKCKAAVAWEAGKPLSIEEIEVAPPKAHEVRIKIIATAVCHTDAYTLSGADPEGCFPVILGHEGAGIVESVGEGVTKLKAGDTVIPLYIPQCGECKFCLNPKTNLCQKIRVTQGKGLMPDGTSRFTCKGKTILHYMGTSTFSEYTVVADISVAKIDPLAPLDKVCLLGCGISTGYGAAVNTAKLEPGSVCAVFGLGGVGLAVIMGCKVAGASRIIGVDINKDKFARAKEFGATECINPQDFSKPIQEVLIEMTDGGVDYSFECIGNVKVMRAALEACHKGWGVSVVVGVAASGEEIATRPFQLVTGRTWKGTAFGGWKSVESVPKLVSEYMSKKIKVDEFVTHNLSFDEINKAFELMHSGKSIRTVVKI

What follows are molecules tested against T1, GSNOR (Homo sapiens, UniProt P11766) (assay: GSNOR assay (inhibition of GSNOR activity, change in 340 nm absorbance)). Conditions: 100 mM NaPO4 pH 7.4, 0.240 mM GSNO, 0.300 mM NADH, 0.5 μg/mL GSNO Reductase, 1% DMSO, 25° C.
T1 construct: made in house; host or cells: E. coli
Format: biochemical
Procedure: Various compounds were tested in vitro for their ability to inhibit GSNOR activity.
GSNOR expression and purification is described in Biochemistry 2000, 39, 10720-10729.
GSNOR Fermentation: Pre-cultures were grown from stabs of a GSNOR glycerol stock in 2XYT media containing 100 ug/ml ampicillin after an overnight incubation at 37° C. Cells were then added to fresh 2XYT (4 L) containing ampicillin and grown to an OD (A600) of 0.6-0.9 at 37° C. before induction. GSNOR expression was induced with 0.1% arabinose in an overnight incubation at 20° C.
GSNOR Purification: E. coli cell paste was lysed by nitrogen cavitation and the clarified lysate purified by Ni affinity chromatography on an AKTA FPLC (Amersham Pharmacia). The column was eluted in 20 mM Tris pH 8.0/250 mM NaCl with a 0-500 mM imidazole gradient. Eluted GSNOR fractions containing the Smt-GSNOR fusion were digested overnight with Ulp-1 at 4° C. to remove the affinity tag then re-run on the Ni column under the same conditions. GSNOR was recovered in the flowthrough fraction and for crystallography is further purified by Q-Sepharose and Heparin flowthrough chromatography in 20 mM Tris pH 8.0, 1 mM DTT, 10 uM ZnSO4.
GSNOR Assay: GSNO and enzyme/NADH Solutions are made up fresh each day. The solutions are filtered and allowed to warm to room temperature. GSNO solution: 100 mM NaPO4 (pH 7.4), 0.480 mM GSNO. 396 μL of GSNO Solution is added to a cuvette followed by 8 μL of test compound in DMSO (or DMSO only for full reaction control) and mixed with the pipette tip. Compounds to be tested are made up at a stock concentration of 10 mM in 100% DMSO. 2 fold serial dilutions are done in 100% DMSO. 8 μL of each dilution are added to an assay so that the final concentration of DMSO in the assay is 1%. The concentrations of compounds tested range from 100 to 0.003 μM. Enzyme/NADH solution: 100 mM NaPO4 (pH 7.4), 0.600 mM NADH, 1.0 μg/mL GSNO Reductase. 396 μL of the Enzyme/NADH solution is added to the cuvette to start the reaction. The cuvette is placed in the Cary 3E UV/Visible Spectrophotometer and the change in 340 nm absorbance/min at 25° C. is recorded for 3 minutes. The assays are done in triplicate for each compound concentration. IC50's for each compound are calculated using the standard curve analysis in the Enzyme Kinetics Module of SigmaPlot.
Final assay conditions: 100 mM NaPO4, pH 7.4, 0.240 mM GSNO, 0.300 mM NADH, 0.5 μg/mL GSNO Reductase, and 1% DMSO. Final volume: 800 μL/cuvette.

SMILES | IC50
O=C(O)c1ccc(-c2ccc3cc(O)ccc3c2)c(Cl)c1 [Example 1, 3-chloro-4-(6-hydroxynaphthalen-2-yl)benzoic acid] | < 5 µM
O=C(O)c1ccc(-c2ccc3cc(O)ccc3c2)c(F)c1 [Example 2, 3-fluoro-4-(6-hydroxynaphthalen-2-yl)benzoic acid] | < 5 µM
COc1cc(C(=O)O)ccc1-c1ccc2cc(O)ccc2c1 [Example 3, 4-(6-hydroxynaphthalen-2-yl)-3-methoxybenzoic acid] | < 5 µM
O=C(O)c1ccc(-c2ccc3cc(O)ccc3c2)cn1 [Example 4, 5-(6-hydroxynaphthalen-2-yl)picolinic acid] | < 5 µM
CN(C)c1cc(C(=O)O)ccc1-c1ccc2cc(O)ccc2c1 [Example 5, 3-(dimethylamino)-4-(6-hydroxynaphthalen-2-yl)benzoic acid] | < 5 µM
N#Cc1cc(C(=O)O)ccc1-c1ccc2cc(O)ccc2c1 [Example 6, 3-cyano-4-(6-hydroxynaphthalen-2-yl)benzoic acid] | < 5 µM
O=C(O)c1ccc(-c2ccc3cc(O)ccc3c2)nc1 [Example 7, 6-(6-hydroxynaphthalen-2-yl)nicotinic acid] | < 5 µM
O=C(O)c1cnc(-c2ccc3cc(O)ccc3c2)cn1 [Example 8, 5-(6-hydroxynaphthalen-2-yl)pyrazine-2-carboxylic acid] | < 5 µM
O=C(O)c1cnc(-c2ccc3cc(O)ccc3c2)nc1 [Example 9, 2-(6-hydroxynaphthalen-2-yl)pyrimidine-5-carboxylic acid] | < 5 µM
O=C(O)c1ccc(-c2ccc3cc(O)ccc3c2)c(N2CCOCC2)c1 [Example 10, 4-(6-hydroxynaphthalen-2-yl)-3-morpholinobenzoic acid] | < 5 µM
O=C(O)c1ccc(-c2ccc3cc(O)ccc3c2)nn1 [Example 11, 6-(6-hydroxynaphthalen-2-yl)pyridazine-3-carboxylic acid] | < 5 µM
O=C(O)c1ccc(-c2ccc3cc(O)ccc3c2Br)cc1 [Example 12, 4-(1-bromo-6-hydroxynaphthalen-2-yl)benzoic acid] | < 5 µM
Cc1c(-c2ccc(C(=O)O)cc2)ccc2cc(O)ccc12 [Example 13, 4-(6-hydroxy-1-methylnaphthalen-2-yl)benzoic acid] | < 5 µM
O=C(O)c1ncc(-c2ccc3cc(O)ccc3c2)cn1 [Example 14, 5-(6-hydroxynaphthalen-2-yl)pyrimidine-2-carboxylic acid] | < 5 µM
N#Cc1c(-c2ccc(C(=O)O)cc2)ccc2cc(O)ccc12 [Example 15, 4-(1-cyano-6-hydroxynaphthalen-2-yl)benzoic acid] | < 5 µM
COc1cc2cc(O)ccc2cc1-c1ccc(C(=O)O)cc1 [Example 16, 4-(6-hydroxy-3-methoxynaphthalen-2-yl)benzoic acid] | < 5 µM
O=C(O)c1ccc(-c2ccc3cc(O)ccc3c2Cl)cc1 [Example 17, 4-(1-chloro-6-hydroxynaphthalen-2-yl)benzoic acid] | < 5 µM

SMILES | IC50
Oc1ccc2cc(-c3ccc(-c4nnn[nH]4)cc3)ccc2c1 [Example 18, 6-(4-(1H-tetrazol-5-yl)phenyl)naphthalen-2-ol] | < 5 µM
Oc1ccc2cc(-c3ccc4nn[nH]c4c3)ccc2c1 [Example 19, 6-(1H-benzo[d][1,2,3]triazol-6-yl)naphthalen-2-ol] | < 5 µM
O=C(O)c1ccc(-c2ccc3cc(O)ccc3c2)c(C(F)(F)F)c1 [Example 20, 4-(6-hydroxynaphthalen-2-yl)-3-(trifluoromethyl)benzoic acid] | < 5 µM
O=C(O)c1ccc(-c2cc3ccc(O)cc3cc2F)c(Cl)c1 [Example 21, 3-chloro-4-(3-fluoro-6-hydroxynaphthalen-2-yl)benzoic acid] | < 5 µM
O=C(O)c1ccc(-c2cc3ccc(O)cc3cc2Cl)cc1 [Example 22, 4-(3-chloro-6-hydroxynaphthalen-2-yl)benzoic acid] | < 5 µM
O=C(O)c1ccc(-c2cc3ccc(O)cc3cc2F)cc1 [Example 23, 4-(3-fluoro-6-hydroxynaphthalen-2-yl)benzoic acid] | < 5 µM
COc1c(-c2ccc(C(=O)O)cc2)ccc2cc(O)ccc12 [Example 24, 4-(6-hydroxy-1-methoxynaphthalen-2-yl)benzoic acid] | < 5 µM
O=C(O)c1ccc(-c2ccc3cc(O)ccc3c2F)cc1 [Example 25, 4-(1-fluoro-6-hydroxynaphthalen-2-yl)benzoic acid] | < 5 µM
Cc1cc2cc(O)ccc2cc1-c1ccc(C(=O)O)cc1 [Example 26, 4-(6-hydroxy-3-methylnaphthalen-2-yl)benzoic acid] | < 5 µM
N#Cc1c(-c2ccc(C(=O)O)cc2)ccc2c(F)c(O)ccc12 [Example 27, 4-(1-cyano-5-fluoro-6-hydroxynaphthalen-2-yl)benzoic acid] | < 5 µM
N#Cc1c(-c2ccc(C(=O)O)cc2F)ccc2cc(O)ccc12 [Example 28, 4-(1-cyano-6-hydroxynaphthalen-2-yl)-3-fluorobenzoic acid] | < 5 µM
O=C(O)c1ccc(-c2ccc3c(F)c(O)ccc3c2)c(Cl)c1 [Example 29, 3-chloro-4-(5-fluoro-6-hydroxynaphthalen-2-yl)benzoic acid] | < 5 µM
O=C(O)c1ccc(-c2ccc3c(F)c(O)ccc3c2)cc1 [Example 30, 4-(5-fluoro-6-hydroxynaphthalen-2-yl)benzoic acid] | < 5 µM
O=C(O)c1ccc(-c2ccc3c(F)c(O)ccc3c2)c(F)c1 [Example 31, 3-fluoro-4-(5-fluoro-6-hydroxynaphthalen-2-yl)benzoic acid] | < 5 µM
Cc1cc(C(=O)O)ccc1-c1ccc2c(F)c(O)ccc2c1 [Example 32, 4-(5-fluoro-6-hydroxynaphthalen-2-yl)-3-methylbenzoic acid] | < 5 µM
O=C(O)c1ccc(-c2ccc3cc(O)ccc3c2)cc1 [Example 33, 4-(6-hydroxynaphthalen-2-yl)benzoic acid] | < 5 µM
